Measurements published in the supplement of paper PMC10849652.
The other results are listed elsewhere or left out.

By UniProt entry, the sequences of proteins in these tests, tags left out. Where a name states a change or a piece, a line headed by the entry shows the natural chain unless it says otherwise.
UniProt Q99704: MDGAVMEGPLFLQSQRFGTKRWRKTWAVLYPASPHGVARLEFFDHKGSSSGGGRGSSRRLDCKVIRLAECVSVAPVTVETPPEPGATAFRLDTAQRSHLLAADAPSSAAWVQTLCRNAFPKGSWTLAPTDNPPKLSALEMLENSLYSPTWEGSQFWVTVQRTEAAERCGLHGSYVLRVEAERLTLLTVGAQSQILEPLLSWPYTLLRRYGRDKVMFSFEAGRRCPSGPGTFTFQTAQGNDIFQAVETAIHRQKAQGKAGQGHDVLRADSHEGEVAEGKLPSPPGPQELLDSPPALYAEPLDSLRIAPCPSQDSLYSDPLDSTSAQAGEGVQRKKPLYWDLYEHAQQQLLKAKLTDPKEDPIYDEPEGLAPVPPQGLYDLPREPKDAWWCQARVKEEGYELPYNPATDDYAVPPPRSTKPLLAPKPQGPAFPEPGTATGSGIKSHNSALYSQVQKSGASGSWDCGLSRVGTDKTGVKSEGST
UniProt O60231: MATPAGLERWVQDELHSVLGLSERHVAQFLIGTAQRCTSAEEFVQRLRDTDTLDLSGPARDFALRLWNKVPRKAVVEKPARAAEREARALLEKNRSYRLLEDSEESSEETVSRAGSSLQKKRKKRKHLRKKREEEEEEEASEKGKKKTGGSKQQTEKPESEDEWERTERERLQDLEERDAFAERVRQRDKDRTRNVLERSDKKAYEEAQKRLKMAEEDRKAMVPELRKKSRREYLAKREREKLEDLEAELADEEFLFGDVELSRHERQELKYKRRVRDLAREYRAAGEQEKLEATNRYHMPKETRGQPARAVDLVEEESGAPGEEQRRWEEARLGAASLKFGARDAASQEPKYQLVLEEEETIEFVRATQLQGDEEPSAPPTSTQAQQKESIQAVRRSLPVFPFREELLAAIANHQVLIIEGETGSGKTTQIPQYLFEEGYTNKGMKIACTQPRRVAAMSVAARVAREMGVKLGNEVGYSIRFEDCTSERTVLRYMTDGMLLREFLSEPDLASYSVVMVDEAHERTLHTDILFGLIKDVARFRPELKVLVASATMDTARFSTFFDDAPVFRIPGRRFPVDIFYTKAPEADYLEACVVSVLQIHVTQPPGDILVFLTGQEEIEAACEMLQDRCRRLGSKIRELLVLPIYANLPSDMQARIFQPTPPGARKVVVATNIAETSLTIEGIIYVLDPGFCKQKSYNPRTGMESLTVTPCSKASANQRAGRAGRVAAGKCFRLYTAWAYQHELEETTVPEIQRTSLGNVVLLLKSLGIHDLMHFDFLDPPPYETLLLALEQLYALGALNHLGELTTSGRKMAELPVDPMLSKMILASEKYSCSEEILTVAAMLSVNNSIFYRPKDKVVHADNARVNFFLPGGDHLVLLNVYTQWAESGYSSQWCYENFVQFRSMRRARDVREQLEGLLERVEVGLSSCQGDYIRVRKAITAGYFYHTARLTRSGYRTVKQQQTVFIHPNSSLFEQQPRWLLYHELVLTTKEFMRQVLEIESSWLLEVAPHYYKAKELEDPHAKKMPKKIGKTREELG
UniProt O00115: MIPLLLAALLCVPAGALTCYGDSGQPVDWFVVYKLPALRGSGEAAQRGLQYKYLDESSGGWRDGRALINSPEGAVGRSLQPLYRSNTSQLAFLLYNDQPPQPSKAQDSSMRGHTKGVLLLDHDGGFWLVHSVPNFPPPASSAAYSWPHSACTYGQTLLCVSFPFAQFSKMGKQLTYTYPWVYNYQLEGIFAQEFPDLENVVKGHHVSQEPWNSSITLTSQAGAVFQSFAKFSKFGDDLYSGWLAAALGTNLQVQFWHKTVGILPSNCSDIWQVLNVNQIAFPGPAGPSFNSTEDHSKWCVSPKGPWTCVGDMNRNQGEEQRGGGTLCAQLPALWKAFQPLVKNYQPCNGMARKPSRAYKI
UniProt Q8IX18: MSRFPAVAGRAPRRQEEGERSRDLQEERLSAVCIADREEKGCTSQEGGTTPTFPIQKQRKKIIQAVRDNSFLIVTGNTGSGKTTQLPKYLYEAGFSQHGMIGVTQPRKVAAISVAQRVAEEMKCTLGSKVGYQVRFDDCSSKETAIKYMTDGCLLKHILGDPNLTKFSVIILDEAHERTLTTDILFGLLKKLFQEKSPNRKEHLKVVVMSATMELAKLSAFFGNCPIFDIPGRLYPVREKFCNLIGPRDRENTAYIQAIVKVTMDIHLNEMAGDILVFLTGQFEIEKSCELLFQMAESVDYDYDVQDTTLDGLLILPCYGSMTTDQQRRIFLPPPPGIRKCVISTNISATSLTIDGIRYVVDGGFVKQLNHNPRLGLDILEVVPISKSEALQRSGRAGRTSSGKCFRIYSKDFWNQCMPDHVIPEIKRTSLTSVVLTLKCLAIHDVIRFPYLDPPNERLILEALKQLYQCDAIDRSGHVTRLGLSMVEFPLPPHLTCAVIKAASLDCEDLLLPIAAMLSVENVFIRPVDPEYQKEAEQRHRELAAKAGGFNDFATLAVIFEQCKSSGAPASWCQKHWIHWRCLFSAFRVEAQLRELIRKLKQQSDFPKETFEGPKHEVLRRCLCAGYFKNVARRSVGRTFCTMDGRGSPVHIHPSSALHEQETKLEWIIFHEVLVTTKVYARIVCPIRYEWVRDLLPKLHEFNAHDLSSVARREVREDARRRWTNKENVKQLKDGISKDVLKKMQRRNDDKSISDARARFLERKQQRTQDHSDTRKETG
UniProt Q9UBM7: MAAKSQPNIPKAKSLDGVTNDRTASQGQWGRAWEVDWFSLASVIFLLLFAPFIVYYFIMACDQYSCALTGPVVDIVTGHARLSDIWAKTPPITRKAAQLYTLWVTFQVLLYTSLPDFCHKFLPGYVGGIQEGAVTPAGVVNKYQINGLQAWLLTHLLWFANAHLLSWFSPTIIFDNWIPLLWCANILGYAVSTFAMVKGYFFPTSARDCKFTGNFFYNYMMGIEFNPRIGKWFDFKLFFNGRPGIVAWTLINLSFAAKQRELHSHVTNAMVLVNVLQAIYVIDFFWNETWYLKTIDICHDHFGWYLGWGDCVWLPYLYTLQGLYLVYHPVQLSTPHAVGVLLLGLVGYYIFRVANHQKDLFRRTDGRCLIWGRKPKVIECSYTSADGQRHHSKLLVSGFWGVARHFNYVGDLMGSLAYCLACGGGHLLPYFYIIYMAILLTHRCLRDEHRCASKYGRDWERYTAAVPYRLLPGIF
UniProt Q15398: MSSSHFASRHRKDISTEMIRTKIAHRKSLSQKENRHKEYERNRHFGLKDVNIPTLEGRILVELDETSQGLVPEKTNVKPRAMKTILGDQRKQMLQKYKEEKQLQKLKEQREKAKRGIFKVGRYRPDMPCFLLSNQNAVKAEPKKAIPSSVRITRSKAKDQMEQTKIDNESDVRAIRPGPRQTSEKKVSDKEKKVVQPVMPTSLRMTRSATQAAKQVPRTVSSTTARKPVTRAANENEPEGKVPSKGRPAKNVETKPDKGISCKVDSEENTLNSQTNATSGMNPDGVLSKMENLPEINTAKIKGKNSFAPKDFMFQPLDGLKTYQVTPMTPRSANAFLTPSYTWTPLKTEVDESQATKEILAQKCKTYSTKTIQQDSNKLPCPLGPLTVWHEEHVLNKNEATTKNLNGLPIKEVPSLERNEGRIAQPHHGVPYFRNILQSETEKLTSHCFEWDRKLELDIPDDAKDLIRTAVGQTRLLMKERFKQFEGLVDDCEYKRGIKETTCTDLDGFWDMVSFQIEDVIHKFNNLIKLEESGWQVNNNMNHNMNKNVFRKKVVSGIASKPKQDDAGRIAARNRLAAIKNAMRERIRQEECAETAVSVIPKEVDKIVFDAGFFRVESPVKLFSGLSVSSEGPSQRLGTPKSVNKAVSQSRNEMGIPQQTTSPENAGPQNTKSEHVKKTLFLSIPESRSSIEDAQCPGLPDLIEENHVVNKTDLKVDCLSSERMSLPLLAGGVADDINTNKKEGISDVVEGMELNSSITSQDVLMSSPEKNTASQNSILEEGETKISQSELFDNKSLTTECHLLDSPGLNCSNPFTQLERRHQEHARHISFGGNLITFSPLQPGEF
UniProt Q9H3Z4: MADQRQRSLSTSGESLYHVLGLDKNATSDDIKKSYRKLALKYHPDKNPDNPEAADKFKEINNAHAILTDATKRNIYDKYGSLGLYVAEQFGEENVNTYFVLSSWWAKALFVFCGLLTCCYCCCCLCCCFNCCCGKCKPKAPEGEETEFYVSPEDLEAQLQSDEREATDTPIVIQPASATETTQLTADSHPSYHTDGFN
UniProt Q9UBS4: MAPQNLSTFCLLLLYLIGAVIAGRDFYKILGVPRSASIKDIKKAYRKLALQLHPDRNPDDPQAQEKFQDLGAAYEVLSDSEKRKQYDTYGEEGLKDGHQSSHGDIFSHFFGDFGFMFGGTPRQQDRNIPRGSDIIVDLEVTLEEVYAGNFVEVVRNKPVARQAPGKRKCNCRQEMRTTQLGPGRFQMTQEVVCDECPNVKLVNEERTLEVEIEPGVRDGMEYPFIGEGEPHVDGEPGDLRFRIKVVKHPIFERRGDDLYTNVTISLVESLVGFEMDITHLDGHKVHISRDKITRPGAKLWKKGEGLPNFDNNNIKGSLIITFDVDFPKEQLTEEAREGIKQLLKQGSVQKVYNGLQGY
UniProt Q9Y2L1: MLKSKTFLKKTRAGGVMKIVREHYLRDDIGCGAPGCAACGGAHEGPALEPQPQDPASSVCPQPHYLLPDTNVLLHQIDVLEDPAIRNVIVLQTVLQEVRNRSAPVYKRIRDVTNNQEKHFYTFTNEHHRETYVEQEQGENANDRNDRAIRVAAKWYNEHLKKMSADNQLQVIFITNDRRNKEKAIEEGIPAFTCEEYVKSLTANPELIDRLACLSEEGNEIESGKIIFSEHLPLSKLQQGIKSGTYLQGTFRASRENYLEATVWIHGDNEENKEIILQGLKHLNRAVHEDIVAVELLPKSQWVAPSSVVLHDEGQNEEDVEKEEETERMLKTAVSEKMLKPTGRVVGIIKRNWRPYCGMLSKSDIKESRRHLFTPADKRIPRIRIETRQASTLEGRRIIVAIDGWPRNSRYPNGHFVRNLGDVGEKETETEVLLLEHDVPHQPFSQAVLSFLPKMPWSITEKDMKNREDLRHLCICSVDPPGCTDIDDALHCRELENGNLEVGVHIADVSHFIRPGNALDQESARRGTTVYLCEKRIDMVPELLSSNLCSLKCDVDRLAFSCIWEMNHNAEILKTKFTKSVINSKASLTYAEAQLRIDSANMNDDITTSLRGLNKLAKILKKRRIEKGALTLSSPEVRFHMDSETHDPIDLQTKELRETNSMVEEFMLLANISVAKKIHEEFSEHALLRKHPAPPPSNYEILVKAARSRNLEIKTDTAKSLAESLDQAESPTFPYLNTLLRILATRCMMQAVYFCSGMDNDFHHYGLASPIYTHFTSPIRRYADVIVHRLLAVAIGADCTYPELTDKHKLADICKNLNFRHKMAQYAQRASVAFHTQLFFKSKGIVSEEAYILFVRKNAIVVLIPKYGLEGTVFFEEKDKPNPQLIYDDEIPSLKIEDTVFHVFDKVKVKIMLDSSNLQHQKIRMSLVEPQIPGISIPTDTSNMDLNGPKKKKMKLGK
UniProt P10515, whole entry, looked up: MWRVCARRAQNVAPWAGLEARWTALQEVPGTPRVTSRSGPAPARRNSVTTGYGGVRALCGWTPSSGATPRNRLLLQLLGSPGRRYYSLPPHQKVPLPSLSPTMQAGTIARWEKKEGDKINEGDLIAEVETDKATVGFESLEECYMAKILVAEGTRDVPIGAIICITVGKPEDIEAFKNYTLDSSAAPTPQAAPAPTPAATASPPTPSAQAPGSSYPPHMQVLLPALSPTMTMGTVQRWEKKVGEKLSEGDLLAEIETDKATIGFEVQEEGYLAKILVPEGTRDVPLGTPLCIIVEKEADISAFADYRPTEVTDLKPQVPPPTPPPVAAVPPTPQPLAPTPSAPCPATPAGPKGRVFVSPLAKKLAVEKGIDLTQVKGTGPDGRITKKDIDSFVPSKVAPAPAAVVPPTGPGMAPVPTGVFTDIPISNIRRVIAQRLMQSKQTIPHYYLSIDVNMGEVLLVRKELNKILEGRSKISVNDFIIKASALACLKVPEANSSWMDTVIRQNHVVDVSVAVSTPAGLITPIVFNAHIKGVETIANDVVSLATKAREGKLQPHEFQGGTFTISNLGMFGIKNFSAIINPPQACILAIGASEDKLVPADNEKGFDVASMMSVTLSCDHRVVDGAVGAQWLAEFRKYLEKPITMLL
UniProt Q9BVM2: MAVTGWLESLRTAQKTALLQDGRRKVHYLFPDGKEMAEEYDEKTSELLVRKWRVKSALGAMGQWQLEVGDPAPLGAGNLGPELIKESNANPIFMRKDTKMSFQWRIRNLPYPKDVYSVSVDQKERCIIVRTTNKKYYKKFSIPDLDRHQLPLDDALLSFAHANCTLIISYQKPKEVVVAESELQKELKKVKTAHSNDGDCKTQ

Columns and labels:
Assay in all cases: log2 fold change, soluble protein after heating vs DMSO (PISA); higher = thermal stabilisation; K562 lysate, 10 uM; active = over 0.2 and 3.5 SD of the protein, either way, in both replicates (recomputed)
[1] = compound: CS(=O)(=O)CCNCc1ccc(-c2ccc3ncnc(Nc4ccc(OCc5cccc(F)c5)c(Cl)c4)c3c2)o1 [lapatinib]
How it was run: (§1)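 Thermal stability, expressed as log-two fold change relative to solvent controls, is given from duplicates. Crude K562 extract in PBS pH 7.4 with 1 mM MgCl2, at 1 mg/mL protein, was treated with 10 μM compound for 30 min and heated in aliquots for 3 min across 48°C-58°C. After pooling, adjustment to 0.5% NP-40 at 4°C and centrifugation at 21,000xg for 90 min, supernatant protein was measured by TMTpro 16plex LC-MS/MS with channel sums equalised.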

[2] = compound: CS(=O)(=O)N1CCN(Cc2cc3nc(-c4cccc5[nH]ncc45)nc(N4CCOCC4)c3s2)CC1 [pictilisib]
How it was run: as §1

[3] = compound: C[C@@H](Oc1cc(-c2cnn(C3CCNCC3)c2)cnc1N)c1c(Cl)ccc(F)c1Cl [crizotinib]
How it was run: as §1

[4] = compound: C[C@H](C1=CC=C(C=C1)C(=O)NC2=C3C=CNC3=NC=C2)N
How it was run: as §1

[5] = compound: C[C@H](Nc1ncnc2nc[nH]c12)c1cc2cccc(Cl)c2c(=O)n1-c1ccccc1 [duvelisib]
How it was run: as §1

[6] = compound: Cc1cc(Nc2cc(CN3CCOCC3)c3nc(C)c(Cc4ccc(Cl)cc4F)n3n2)n[nH]1 [gandotinib]
How it was run: as §1

[7] = compound: Cc1cc(Nc2cc(N3CCN(C)CC3)nc(Sc3ccc(NC(=O)C4CC4)cc3)n2)n[nH]1 [tozasertib]
How it was run: as §1

[8] = compound: Cc1ccc(-n2nc(C(C)(C)C)cc2NC(=O)Nc2ccc(OCCN3CCOCC3)c3ccccc23)cc1 [doramapimod]
How it was run: as §1

[9] = compound: Cc1ccc(NC(=O)c2ccc(CN3CC[C@H](N(C)C)C3)c(C(F)(F)F)c2)cc1Nc1nccc(-c2cncnc2)n1 [bafetinib]
How it was run: as §1

[10] = compound: Cc1cccc(CC(=O)N2CCc3c2ccc(-c2cn(C)c4ncnc(N)c24)c3F)n1
How it was run: as §1

[11] = compound: Cc1cn(-c2cc(NC(=O)c3ccc(C)c(Nc4nccc(-c5cccnc5)n4)c3)cc(C(F)(F)F)c2)cn1 [nilotinib]
How it was run: as §1

[12] = compound: Cc1nc(Nc2n[nH]c3c2CN(C(=O)N[C@H](CN(C)C)c2ccccc2)C3(C)C)c2sccc2n1
How it was run: as §1

[13] = compound: Cc1nc(Nc2ncc(C(=O)Nc3c(C)cccc3Cl)s2)cc(N2CCN(CCO)CC2)n1 [dasatinib]
How it was run: as §1

[14] = compound: Cc1ncc(-c2ccnc(Nc3ccc(S(C)(=O)=O)cc3)n2)n1C(C)C
How it was run: as §1

[15] = compound: Cn1cc(-c2ccc3c(c2)CCN3C(=O)Cc2cccc(C(F)(F)F)c2)c2c(N)ncnc21
How it was run: as §1

[16] = compound: Cn1cc(CNCC2CCN(c3ncc(C(=O)NO)cn3)CC2)c2ccccc21 [quisinostat]
How it was run: as §1

[17] = compound: Cn1cncc1[C@@](N)(c1ccc(Cl)cc1)c1ccc2c(c1)c(-c1cccc(Cl)c1)cc(=O)n2C [tipifarnib]
How it was run: as §1

[18] = compound: NC(=O)Nc1cc(-c2cccc(F)c2)sc1C(=O)N[C@H]1CCCNC1
How it was run: as §1

[19] = compound: NC(=O)c1cnc(N[C@@H]2CCCC[C@@H]2N)nc1Nc1cccc(-n2nccn2)c1
How it was run: as §1

[20] = compound: NC1(c2ccc(-c3nc4ccn5c(=O)[nH]nc5c4cc3-c3ccccc3)cc2)CCC1
How it was run: as §1

Measured: log2 fold change

DIP2A (UniProt Q14689)
inactive: [1] 0.008 | [2] -0.007 | [3] 0.002 | [4] -0.028 | [5] 0.049 | [6] 0.034 | [7] 0.031 | [8] 0.057 | [9] -0.044 | [10] 0.016 | [11] -0.009 | [12] -0.062 | [13] -0.14 | [14] 0.016 | [15] 0.135 | [16] -0.039 | [17] 0.013 | [18] -0.028 | [19] 0.029 | [20] -0.027

DOK1 (UniProt Q99704)
inactive: [1] 0.01 | [2] -0.026 | [3] 0.007 | [4] -0.056 | [5] -0.002 | [6] 0.042 | [7] 0.008 | [8] 0.044 | [9] -0.006 | [10] -0.001 | [11] -0.019 | [12] 0.05 | [13] 0.014 | [14] -0.103 | [15] 0.023 | [16] -0.032 | [17] 0.048 | [18] 0.07 | [19] -0.055 | [20] 0.018

DIS3L (UniProt Q8TF46)
inactive: [1] -0.014 | [2] 0.02 | [3] -0.064 | [4] -0.009 | [5] -0.034 | [6] -0.055 | [7] 0.019 | [8] 0.068 | [9] -0.138 | [10] -0.05 | [11] 0.042 | [12] -0.072 | [13] -0.03 | [14] -0.007 | [15] 0.099 | [16] -0.113 | [17] -0.02 | [18] 0.011 | [19] 0.062 | [20] 0.044

DHX16 (UniProt O60231)
inactive: [1] 0.021 | [2] -0.031 | [3] -0.026 | [4] 0.023 | [5] 0.002 | [6] -0.054 | [7] 0.006 | [8] 0.013 | [9] -0.016 | [10] -0.081 | [11] -0.007 | [12] -0.019 | [13] -0.011 | [14] 0.003 | [15] 0.012 | [16] -0.045 | [17] -0.02 | [18] -0.003 | [19] -0.011 | [20] -0.029

DNASE2 (UniProt O00115)
inactive: [1] 0.006 | [2] -0.021 | [3] 0.032 | [4] -0.034 | [5] -0.077 | [6] 0.092 | [7] 0.019 | [8] 0.053 | [9] 0.002 | [10] -0.016 | [11] 0.006 | [12] 0.024 | [13] 0.094 | [14] 0.028 | [15] -0.001 | [16] 0.094 | [17] 0.019 | [18] -0.069 | [19] -0.034 | [20] 0.028

DHX40 (UniProt Q8IX18)
inactive: [1] -0.051 | [2] -0.038 | [3] 0.029 | [4] -0.01 | [5] 0.007 | [6] 0.009 | [7] 0.023 | [8] 0 | [9] -0.045 | [10] 0.081 | [11] -0.035 | [12] 0.034 | [13] 0.019 | [14] 0.009 | [15] 0.021 | [16] 0.012 | [17] 0.046 | [18] 0.021 | [19] 0.008 | [20] -0.007

DHCR7 (UniProt Q9UBM7)
active: [6] -0.215
inactive: [1] -0.092 | [2] -0.039 | [3] -0.103 | [4] -0.024 | [5] 0.067 | [7] -0.01 | [8] 0.002 | [9] 0.024 | [10] 0.013 | [11] -0.013 | [12] 0.016 | [13] 0.011 | [14] 0 | [15] 0.013 | [16] 0.234 | [17] 0.015 | [18] 0.029 | [19] 0.008 | [20] 0.047

DIDO1 (UniProt Q9BTC0)
inactive: [1] -0.005 | [2] -0.024 | [3] 0 | [4] 0.01 | [5] -0.019 | [6] 0.023 | [7] 0.03 | [8] -0.005 | [9] -0.189 | [10] 0.071 | [11] 0.041 | [12] -0.002 | [13] 0 | [14] 0.217 | [15] 0.005 | [16] -0.014 | [17] -0.079 | [18] -0.011 | [19] -0.004 | [20] 0.063

Two neighbouring entries out of the list so far, for reference:
DHX16 (UniProt O60231)
inactive: [1] 0.021 | [2] -0.031 | [3] -0.026 | [4] 0.023 | [5] 0.002 | [6] -0.054 | [7] 0.006 | [8] 0.013 | [9] -0.016 | [10] -0.081 | [11] -0.007 | [12] -0.019 | [13] -0.011 | [14] 0.003 | [15] 0.012 | [16] -0.045 | [17] -0.02 | [18] -0.003 | [19] -0.011 | [20] -0.029

DNASE2 (UniProt O00115)
inactive: [1] 0.006 | [2] -0.021 | [3] 0.032 | [4] -0.034 | [5] -0.077 | [6] 0.092 | [7] 0.019 | [8] 0.053 | [9] 0.002 | [10] -0.016 | [11] 0.006 | [12] 0.024 | [13] 0.094 | [14] 0.028 | [15] -0.001 | [16] 0.094 | [17] 0.019 | [18] -0.069 | [19] -0.034 | [20] 0.028

Continued:

DHCR24 (UniProt Q15392)
inactive: [1] 0.034 | [2] 0.016 | [3] -0.129 | [4] -0.046 | [5] 0.076 | [6] -0.059 | [7] 0.032 | [8] -0.06 | [9] 0.069 | [10] 0.033 | [11] -0.065 | [12] 0.026 | [13] 0.08 | [14] -0.001 | [15] -0.275 | [16] 0.103 | [17] -0.07 | [18] 0.095 | [19] -0.002 | [20] -0.037

DLGAP5 (UniProt Q15398)
inactive: [1] 0.02 | [2] 0 | [3] -0.016 | [4] -0.029 | [5] -0.005 | [6] 0.049 | [7] -0.014 | [8] 0.001 | [9] -0.008 | [10] 0.04 | [11] -0.013 | [12] 0.029 | [13] -0.036 | [14] 0 | [15] 0.001 | [16] -0.033 | [17] 0.001 | [18] 0.011 | [19] 0.006 | [20] 0.007

DNAJC5 (UniProt Q9H3Z4)
inactive: [1] -0.021 | [2] 0.075 | [3] 0.007 | [5] -0.041 | [6] 0.161 | [7] -0.054 | [8] 0.023 | [9] -0.144 | [11] -0.136 | [12] -0.043 | [13] -0.002 | [14] 0.008 | [15] -0.029 | [16] -0.05 | [17] 0.043 | [18] -0.045 | [19] 0.062 | [20] 0.024
active: [4] -0.377 | [10] 0.334

DNAJB11 (UniProt Q9UBS4)
inactive: [1] -0.017 | [2] 0.001 | [3] -0.007 | [4] -0.043 | [5] -0.003 | [6] 0.03 | [7] 0.001 | [8] 0.017 | [9] -0.013 | [10] 0.044 | [11] -0.012 | [12] 0.025 | [13] -0.003 | [14] -0.037 | [15] -0.014 | [16] -0.05 | [17] -0.025 | [18] -0.014 | [19] -0.018 | [20] -0.026

DIS3 (UniProt Q9Y2L1)
inactive: [1] -0.018 | [2] -0.016 | [3] -0.012 | [4] -0.003 | [5] 0.001 | [6] -0.038 | [7] -0.003 | [8] 0.024 | [9] -0.012 | [10] 0.01 | [11] -0.006 | [12] 0.008 | [13] -0.011 | [14] 0.03 | [15] 0.018 | [16] -0.008 | [17] 0.044 | [18] 0.015 | [19] -0.007 | [20] -0.008

DLAT (UniProt P10515)
inactive: [1] -0.053 | [2] 0.001 | [3] -0.077 | [4] -0.094 | [5] 0.05 | [6] 0.027 | [7] -0.015 | [8] 0.103 | [9] -0.14 | [10] 0.033 | [11] 0.019 | [12] -0.042 | [13] -0.101 | [14] -0.057 | [15] 0.006 | [16] -0.135 | [17] -0.002 | [18] 0.02 | [19] 0.017 | [20] -0.025

DPCD (UniProt Q9BVM2)
inactive: [1] 0.049 | [2] -0.015 | [3] -0.04 | [4] -0.077 | [5] -0.032 | [6] -0.022 | [7] 0.091 | [8] 0.048 | [9] -0.07 | [10] 0.064 | [11] -0.048 | [12] 0.048 | [13] -0.024 | [14] -0.048 | [15] -0.004 | [16] -0.056 | [17] 0.03 | [18] 0.038 | [19] -0.008 | [20] 0.013

DNAAF5 (UniProt Q86Y56)
inactive: [1] -0.03 | [2] -0.008 | [3] -0.104 | [4] 0.016 | [5] 0.021 | [6] -0.147 | [7] -0.055 | [8] 0.024 | [9] -0.066 | [10] 0.027 | [11] -0.015 | [12] 0.004 | [13] -0.118 | [14] -0.024 | [15] 0.007 | [16] -0.1 | [17] -0.002 | [18] 0.073 | [19] 0.006 | [20] 0.024
